# Results from US8901158B2, “Treatment of bipolar disorder” (Isis Innovation Ltd., priority 2011, dated 2014).
# At least one read-out could not be matched to a standard name with certainty.
# Tested on: inositol monophosphatase
# Test: mouse ex vivo assay of IMPase activity in brain homogenate
# Conditions: 5 mg/kg i.p.
# Experimental: To determine the bio-availability of ebselen, a mouse ex vivo assay was used. In this assay mice were given an intraperitoneal (i.p.) injection of 5 mg/kg ebselen solublized in betacyclodextrin, according to the following procedure. A stock solution of 0.5 M ebselen in DMSO and a stock of 40% 2-Hydroxy propyl-beta-cyclodextrin (HPBCD) were made. A 3.5 mM solution of ebselen (from 0.5 M stock) was made into 40% HPBCD and finally, to obtain the concentration of 350 μM ebselen, a 1 in 10 dilution was carried out. A control solution was made containing the same dilution of DMSO and HPBCD. The volume of drug/vehicle injected i.p. into the mouse was 1 ml (for the animals dosed with ebselen this is approximately 5 mg/kg assuming each mouse weighs about 20 g). CD1 male mice, weighing approximately 20 g were used. The animals were dosed for one hour with either drug or vehicle before being killed by cervical dislocation. The brains were quickly dissected out and frozen in liquid nitrogen. […]
# The protein concentration of each brain homogenate was determined and a stock of 2.5 mg of protein was made from the homogenate and stored. […] The intensity of the green color formed was measured at 595 nm.
smiles,measurement,value
"O=c1c2ccccc2[se]n1-c1ccccc1 [Ebselen, 2-phenyl-1,2-benzisoselenazol-3(2H)-one]",bio-availability / blood/brain barrier permeability,"bio-available, being blood/brain barrier permeable"
